Measured values as given in PubChem BioAssay AID493014 (National Center for Advancing Translational Sciences (NCATS), 2011).
Some of the results follow. Further columns of the screen follow, without active or inactive calls. Compounds called inactive in the main read-out are mostly missing here. Words in brackets tell the shape of the fitted curve; partial curves, single points and poor fits give uncertain potencies.

Experiment: qHTS Assay to Find Inhibitors of Chronic Active B-Cell Receptor Signaling
Details: ABC-DLBCL IkBa-CBG/CBR reporter, luminescence ratio (green luciferase fused to IkBa over red control in TMD8 lymphoma cells), 4 h
How it was run: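 Compounds up to 46 uM were incubated four hours with TMD8 cells whose green CBG68 luciferase is fused to IkappaBalpha; red CBR luminescence normalised the signal, and concentration-effect curves were fitted to fusion, red and ratio data.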

[1] = measured here: CBR red luminescence, cell number
[2] = measured here: IkBa-CBG green luminescence

SMILES	AC50 [1]	AC50 [2]
CCc1cccc(CC)c1NC(=O)CN1C2CCCC1CC(NC(=O)Nc1cccc(OC)c1)C2 (stereo not drawn)	3.98 µM [rising, single point]	–
O=C(COC(=O)c1cc([N+](=O)[O-])ccc1N1CCOCC1)c1ccccc1	23.1 µM [falling, partial curve, poor fit]	–
O=C(/C=C/c1ccc(Cl)cc1)NC(=S)Nc1ccc(C(=O)O)cc1	3.55 µM [falling, full curve]	–
O=C(Nc1ccccc1Cl)c1ccc2c(=O)n3c(nc2c1)CCC3	23.1 µM [falling, single point]	–
Cn1cnnc1SCC(=O)c1cc2ccccc2oc1=O	18.4 µM [falling, single point]	–
CCC(C)c1ccc(NC(=S)Nc2ccc(OC)cc2C)cc1 (stereo not drawn)	25.9 µM [falling, single point]	–
CCOC(=O)C[n+]1c(C)sc2ccc(OC)cc21	22.4 µM [falling, single point]	–
NNC(=O)c1cnn(-c2ccccc2)c1-n1cccc1	31.6 µM [rising, single point]	31.6 µM [falling, single point]
O=C(/C=C/c1ccc2c(c1)OCCCO2)c1ccccc1O	18.4 µM [falling, partial curve]	–
CC(C)n1nnnc1SCC(=O)N1N=C(c2cccs2)CC1c1cccs1 (stereo not drawn)	18.4 µM [rising, partial curve, poor fit]	–
COC(=O)c1ccccc1SC1CC(=O)N(c2ccccc2)C1=O (stereo not drawn)	0.058 µM [falling, full curve, poor fit]	–
O=C1CC(N2CCN(c3ccccn3)CC2)C(=O)N1CC(c1ccccc1)c1ccccc1 (stereo not drawn)	23.1 µM [falling, single point]	–
O=C(COC(=O)c1cncc(Br)c1)NCCC1=CCCCC1	32.6 µM [falling, single point]	–
COc1ccc(CCNC(=O)c2c(Cl)ccc(Cl)c2OC)cc1OC	14.1 µM [rising, partial curve, poor fit]	–
Cc1ccc(C(=O)N(C)CC(=O)Nc2ccc(Cl)c(C(F)(F)F)c2)cc1S(=O)(=O)N1CCCCC1	20.6 µM [falling, single point]	–
NS(=O)(=O)c1ccc(NC(=S)NC2CCCCC2)cc1	22.4 µM [falling, single point]	–
O=C(CCc1c[nH]c2ccccc12)NCCc1ccc(O)cc1	15.8 µM [rising, partial curve, poor fit]	–
CCSC(C)CC1C/C(=N/O)c2c(CC)noc2C1 (stereo not drawn)	0.259 µM [rising, full curve, poor fit]	–
COc1ccccc1-c1cc(-c2ccc(O)cc2)nc(N)c1C#N	3.98 µM [falling, full curve, poor fit]	–
COc1cc(/C=N/O)ccc1OCc1ccc(C(=O)O)cc1	0.461 µM [falling, full curve]	–
CCOc1cc(/C=N/Nc2nnc(C)n2N)ccc1O	35.5 µM [falling, single point]	–

SMILES	AC50 [1]	AC50 [2]
Cc1nc(Nc2nc3ccccc3o2)nc2c1CCC2	0.112 µM [rising, full curve, poor fit]	–
C/C(CC(=O)NC12CC3CC(CC(C3)C1)C2)=N\NC(=O)c1ccc(F)cc1	8.91 µM [falling, partial curve, poor fit]	–
CN1CCN(c2oc(COc3ccc(-c4ccccc4)cc3)nc2C#N)CC1	6.51 µM [rising, single point]	–
CCC(C)Nc1nc(-c2cccc(OC)c2O)nc2ccccc12 (stereo not drawn)	17.8 µM [falling, partial curve, poor fit]	–
CCOc1ccc(C(=O)NC(=S)Nc2ccc(N3CCOCC3)c(Cl)c2)cc1[N+](=O)[O-]	7.31 µM [rising, partial curve, poor fit]	–
C=C1C(=O)C=C[C@]2(C)C[C@@H]3OC(=O)[C@](C)(O)[C@H]3C[C@@H]12	35.5 µM [falling, single point]	3.55 µM [falling, partial curve, poor fit]
O=Cc1cccc(OC(=O)c2ccc(Cl)cc2Cl)c1	9.2 µM [rising, partial curve]	–
Cc1ccc(OCC(=O)Nc2ccccc2F)cc1C	7.08 µM [falling, partial curve]	–
CCOc1ccc(/C=N/Nc2ccccc2)cc1	14.1 µM [falling, single point]	–
Cc1cc(C)c2c(N)c(C(=O)Nc3cccc(C)c3C)sc2n1	11.2 µM [falling, partial curve]	–
Cc1ccc(NC(=O)c2cc(S(=O)(=O)NC3CCCCCC3)ccc2F)cc1F	14.1 µM [falling, partial curve, poor fit]	–
CC[n+]1c(/C=C/C=C/N(C(C)=O)c2ccccc2)sc2cc(OC)ccc21	13 µM [rising, partial curve, poor fit]	–
Fc1ccccc1Cn1cc(C(=S)N2CCOCC2)c2ccccc21	10 µM [falling, partial curve]	–
CCc1ccc(C(=O)COC(=O)c2cc([N+](=O)[O-])ccc2N2CCOCC2)cc1	0.0082 µM [rising, full curve, poor fit]	–
Cc1cc2oc(C(=O)NC3CCS(=O)(=O)C3)c(C)c2cc1C (stereo not drawn)	2.91 µM [rising, partial curve, poor fit]	–
Cc1cccc(OCc2nc(C#N)c(NCc3ccc4c(c3)OCO4)o2)c1	0.164 µM [falling, full curve, poor fit]	–
COc1ccc(Br)cc1/C=C(\C(=O)O)c1ccc(S(=O)(=O)N2CCCC2)s1	6.51 µM [falling, partial curve, poor fit]	–
COc1ccc(NC(=S)NC(=O)/C=C/c2cccs2)cc1	7.94 µM [rising, partial curve]	–
COc1ccc(C(=O)NCCCc2nc3ccccc3n2Cc2ccccc2C)cc1OC	1.84 µM [rising, partial curve, poor fit]	–
O=C(NCCc1ccc(Cl)cc1)c1n[nH]c2ccccc12	3.98 µM [falling, partial curve]	–

Entries from the list above with four or more nitrogen atoms (8):
SMILES	AC50 [1]	AC50 [2]
CCc1cccc(CC)c1NC(=O)CN1C2CCCC1CC(NC(=O)Nc1cccc(OC)c1)C2 (stereo not drawn)	3.98 µM [rising, single point]	–
NNC(=O)c1cnn(-c2ccccc2)c1-n1cccc1	31.6 µM [rising, single point]	31.6 µM [falling, single point]
CC(C)n1nnnc1SCC(=O)N1N=C(c2cccs2)CC1c1cccs1 (stereo not drawn)	18.4 µM [rising, partial curve, poor fit]	–
O=C1CC(N2CCN(c3ccccn3)CC2)C(=O)N1CC(c1ccccc1)c1ccccc1 (stereo not drawn)	23.1 µM [falling, single point]	–
CCOc1cc(/C=N/Nc2nnc(C)n2N)ccc1O	35.5 µM [falling, single point]	–
Cc1nc(Nc2nc3ccccc3o2)nc2c1CCC2	0.112 µM [rising, full curve, poor fit]	–
CN1CCN(c2oc(COc3ccc(-c4ccccc4)cc3)nc2C#N)CC1	6.51 µM [rising, single point]	–
CCOc1ccc(C(=O)NC(=S)Nc2ccc(N3CCOCC3)c(Cl)c2)cc1[N+](=O)[O-]	7.31 µM [rising, partial curve, poor fit]	–
